Measurements published in paper PMC5698428.

The chains behind the UniProt entries cited, without tags or fusion partners.
UniProt P40763, whole entry: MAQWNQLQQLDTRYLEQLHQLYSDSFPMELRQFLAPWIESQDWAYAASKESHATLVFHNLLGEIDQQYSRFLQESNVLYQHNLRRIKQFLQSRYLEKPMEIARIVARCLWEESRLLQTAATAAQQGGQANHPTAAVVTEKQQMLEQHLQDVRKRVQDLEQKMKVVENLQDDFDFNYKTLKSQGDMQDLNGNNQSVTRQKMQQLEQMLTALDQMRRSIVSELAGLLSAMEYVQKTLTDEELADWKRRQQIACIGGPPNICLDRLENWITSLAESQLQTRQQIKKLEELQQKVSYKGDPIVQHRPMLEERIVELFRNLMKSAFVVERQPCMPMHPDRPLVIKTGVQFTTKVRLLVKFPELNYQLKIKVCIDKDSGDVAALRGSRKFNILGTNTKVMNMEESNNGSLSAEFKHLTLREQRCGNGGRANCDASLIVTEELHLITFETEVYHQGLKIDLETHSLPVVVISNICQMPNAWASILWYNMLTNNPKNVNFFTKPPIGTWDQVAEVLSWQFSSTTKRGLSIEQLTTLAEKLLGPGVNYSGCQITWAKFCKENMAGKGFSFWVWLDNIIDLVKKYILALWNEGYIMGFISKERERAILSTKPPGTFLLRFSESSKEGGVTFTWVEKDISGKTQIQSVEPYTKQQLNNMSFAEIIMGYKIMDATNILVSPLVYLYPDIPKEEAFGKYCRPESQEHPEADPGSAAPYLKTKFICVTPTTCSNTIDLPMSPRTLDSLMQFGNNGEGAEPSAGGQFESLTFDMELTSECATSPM

Biological target: Etag-STAT3 wt (UniProt P40763)
Assay: EMSA, supershift
Conditions: 10 mM Hepes pH 7.8, 1 mM EDTA, 5 mM MgCl2, 10% glycerol, 5 mM DTT, 2 mM Pefabloc SC, 1 mg/ml BSA, 0.1 mg/ml poly(dI-dC), 5 ug nuclear extract, ~10 fmol probe, 10 min, protein in a lysate after overexpression, label: alpha-32P dATP (Klenow fill-in)

Row | Sequence | binding result (IFNa2 5 ng/ml 15 min) | binding result (LIF 15 ng/ml 15 min)
1 | GATCCGGGAGGGATTTACGGGAAATGCTG (double strand) [cFOS promoter probe] | binds more weakly | binds more weakly
2 | CGATTCCTGGAACTGCGCGG / CAGCATTTCCGCGCAGTTCCAGGAA [SOCS3 promoter probe] | binds more weakly | binds more weakly

The exact form of at least one protein or probe is not confirmed. Results from cells or extracts need not show a direct contact. A weaker result is weaker than the reference pair of the same experiment. At least one verdict rests on a figure or table, not on a statement of the authors.
